This passage reports minimum inhibitory concentration results from article PMC5484111, “Isolation, Amino Acid Sequences, and Plausible Functions of the Galacturonic Acid-Binding Egg Lectin of the Sea Hare Aplysia kurodai” (Marine Drugs, 2017).

≈ marks a conversion by molar mass, not a printed value. Bounds are passed on as bounds.

In the series the test system is T1, AKL (Aplysia kurodai lectin).
T1 construct: gene AKL-a; inseparable isolectin mixture; 18-residue signal removed, mature 218 or 219 residues, N-glycosylated; N-termini SGDQAMCDVI, NQDQAMCDVI; cDNAs from albumen gland of a different individual, some N-terminal residues differ
Description: inhibition of hemagglutination of rabbit erythrocytes. The series is classed as cell-based. The conditions noted are these: minimum concentration inhibiting hemagglutination, titer 8, pH 8.0, 37 °C, methods say diluted extract, results say AKL.

On to `OC1OC[C@@H](O)[C@H](O)[C@H]1O` (stereo partly drawn) [D-xylose], for which the minimum inhibitory concentration stood at 6.25 mM (≈ 938 µg/mL).
As for `OC[C@H]1OC(O)[C@H](O)[C@@H](O)[C@H]1O` (stereo partly drawn) [D-galactose], where the note is “no inhibition at highest concentration tested”, the minimum inhibitory concentration was above 100 mM.
With `O=C(O)[C@H]1OC(O)[C@H](O)[C@@H](O)[C@H]1O` (stereo partly drawn) [GalU, D-galacturonic acid], the minimum inhibitory concentration was determined as 0.013 mM (≈ 2.52 µg/mL).
